# Source: patent US20230146455A1 (Yuyu Pharma, Inc., priority 2020, published 2023)
# Columns and labels:
# CCL2/JE/MCP-1 = assay: Example 9 Luminex, LPS hPBMCs: CCL2/JE/MCP-1; type: cell-based, human; settings: Bead CCL2/JE/MCP-1
# Method: (§1) Treatment Human PBMCs were pretreated with YY-101, YDE-011 and YDE-043 or reference compound; Xiidra® at various concentration (ranging from 1 nM to 100 uM) for 2 h before stimulation. An equal volume of 0.5% DMSO was used as a vehicle control. Then, the cells were treated with LPS at 5 ug/ml. The supernatants from treated cells were harvested at 24 h and placed in a 96 well for Luminex cytokine & chemokine profiling using a Luminex 200 multiplex assay (Luminex; R&D system, USA).
# (§2) The main study arm with triplicate wells per group in a 24-well plate: • 1. Blank • 2. PBMC: 0.5% DMSO • 3. PBMC+LPS (5 ug/ml) • 4. PBMC+YY-101 100 uM • 5. PBMC+YY-101 10 uM • 6. PBMC+YY-101 1 uM • 7. PBMC+YY-101 0.1 uM • 8. PBMC+YY-101 0.01 uM • 9. PBMC+LPS (5 ug/ml)+Xiidra®100 uM • 10. PBMC+LPS (5 ug/ml)+Xiidra® 10 uM • 11. PBMC+LPS (5 ug/ml)+Xiidra® 1 uM • 12. PBMC+LPS (5 ug/ml)+Xiidra®0.1 uM • 13. PBMC+LPS (5 ug/ml)+Xiidra®0.01 uM • 14. PBMC+LPS (5 ug/ml)+Xiidra®0.001 uM • 15. PBMC+LPS (5 ug/ml)+YY-101 100 uM • 16. PBMC+LPS (5 ug/ml)+YY-101 10 uM • 17. PBMC+LPS (5 ug/ml)+YY-101 1 uM • 18. PBMC+LPS (5 ug/ml)+YY-101 0.1 uM • 19. PBMC+LPS (5 ug/ml)+YY-101 0.01 uM • 20. PBMC+LPS (5 ug/ml)+YY-101 0.001 uM • 21. PBMC+LPS (5 ug/ml)+YDE-011 100 uM • 22. PBMC+LPS (5 ug/ml)+YDE-011 10 uM • 23. PBMC+LPS (5 ug/ml)+YDE-011 1 uM • 24. PBMC+LPS (5 ug/ml)+YDE-011 0.1 uM • 25. PBMC+LPS (5 ug/ml)+YDE-011 0.01 uM • 26. PBMC+LPS (5 ug/ml)+YDE-011 0.001 uM • 27. PBMC+LPS (5 ug/ml)+YDE-043 100 uM • 28. PBMC+LPS (5 ug/ml)+YDE-043 10 uM • 29. PBMC+LPS (5 ug/ml)+YDE-043 1 uM • 30. PBMC+LPS (5 ug/ml)+YDE-043 0.1 uM • 31. PBMC+LPS (5 ug/ml)+YDE-043 0.01 uM • 32. PBMC+LPS (5 ug/ml)+YDE-043 0.001 uM
# (§3) Multiplex assay was used to measure 30 cytokines and chemokines. The 1:2, 1:10 and 1:200 diluted cell supernatant and serial dilution of the standard were dispensed into a 96 well plate at 50 ul/well. Then, the pre-mixed cocktail of antibody-coated magnetic beads was dispensed at 50 ul/well and incubated at room temperature for 2 h in a horizontal orbital microplate shaker at 800±500 rpm. The beads were washed using a magnetic device to prevent loss. The biotin-antibody was dispensed in 50 ul of each well and incubated at room temperature for 1 h in a shaker at 800±500 rpm. After washing, streptavidin-PE was added at 50 ul/well and incubated at room temperature for 30 min in a shaker under the same conditions. Finally, after washing, wash buffer (100 ul/well) was added to the plate and incubated in a shaker for 2 min. The Luminex™ 200 setting were set according to the manufacturer's protocol. The data was calculated with a standard five-parameter logistic nonlinear regression analysis of the data (xPonent software 4.2, USA). The levels of cytokine/chemokine are normalized to the live cell counts (1×10^5 cells/mL) and presented as concentrations per mL (pg/mL or ng/mL).
# IFN-gamma = assay: Example 9 Luminex, LPS hPBMCs: IFN-gamma; type: cell-based, human
# Method: as §1, §2, §3
# [1] = PBMC + LPS(5 ug/ml) + test article 0.001 uM, Mean
# [2] = PBMC + LPS(5 ug/ml) + test article 0.01 uM, Mean
# [3] = PBMC + LPS(5 ug/ml) + test article 0.1 uM, Mean
# [4] = PBMC + LPS(5 ug/ml) + test article 1 uM, Mean
# [5] = PBMC + LPS(5 ug/ml) + test article 10 uM, Mean
# [6] = PBMC + LPS(5 ug/ml) + test article 100 uM, Mean
# [7] = PBMC + test article 0.01 uM, no LPS, Mean
# [8] = PBMC + test article 0.1 uM, no LPS, Mean
compound,measurement,setting,value
CC(C)C[C@H](NC(=O)CNC(=O)[C@H](CC(=O)O)NC(=O)[C@H](CCC(N)=O)NC(=O)CNC(=O)[C@@H]1C[C@@H](O)CN1)C(=O)N[C@@H](C)C(=O)NCC(=O)N1CCC[C@H]1C(=O)N[C@@H](CCCCN)C(=O)O [YY-101] (H-[Hyp]GQDGLAGPK-OH; N-terminus and C-terminus assumed),MFI,CCL2/JE/MCP-1; [1],13155.3
same,MFI,"CCL2/JE/MCP-1; PBMC + LPS(5 ug/ml) + test article 0.001 uM, individual replicates",12717.0 and 12912.0 and 13837.0
same,MFI,CCL2/JE/MCP-1; [2],13399.2
same,MFI,"CCL2/JE/MCP-1; PBMC + LPS(5 ug/ml) + test article 0.01 uM, individual replicates",13686.0 and 13444.5 and 13067.0
same,MFI,CCL2/JE/MCP-1; [3],12213.3
same,MFI,"CCL2/JE/MCP-1; PBMC + LPS(5 ug/ml) + test article 0.1 uM, individual replicates",12267.0 and 12562.0 and 11811.0
same,MFI,CCL2/JE/MCP-1; [4],13380.5
same,MFI,"CCL2/JE/MCP-1; PBMC + LPS(5 ug/ml) + test article 1 uM, individual replicates",13078.5 and 13103.0 and 13960.0
same,MFI,CCL2/JE/MCP-1; [5],11852.3
same,MFI,"CCL2/JE/MCP-1; PBMC + LPS(5 ug/ml) + test article 10 uM, individual replicates",11415.0 and 12533.0 and 11609.0
same,MFI,CCL2/JE/MCP-1; [6],1176.7
same,MFI,"CCL2/JE/MCP-1; PBMC + LPS(5 ug/ml) + test article 100 uM, individual replicates",992.0 and 1275.0 and 1263.0
same,MFI,CCL2/JE/MCP-1; [7],10422.3
same,MFI,"CCL2/JE/MCP-1; PBMC + test article 0.01 uM, no LPS, individual replicates",4825.5 and 16019.0
same,MFI,CCL2/JE/MCP-1; [8],6839.3
same,MFI,"CCL2/JE/MCP-1; PBMC + test article 0.1 uM, no LPS, individual replicates",4052.5 and 9626.0
same,MFI,"CCL2/JE/MCP-1; PBMC + test article 1 uM, no LPS, Mean",5920.5
same,MFI,"CCL2/JE/MCP-1; PBMC + test article 1 uM, no LPS, individual replicates",4611.0 and 7230.0
same,MFI,"CCL2/JE/MCP-1; PBMC + test article 10 uM, no LPS, Mean",16393.8
same,MFI,"CCL2/JE/MCP-1; PBMC + test article 10 uM, no LPS, individual replicates",22755.0 and 10032.5
same,MFI,"CCL2/JE/MCP-1; PBMC + test article 100 uM, no LPS, Mean",3076.8
same,MFI,"CCL2/JE/MCP-1; PBMC + test article 100 uM, no LPS, individual replicates",4286.0 and 1867.5
same,MFI (Bead name: IFN-gamma),IFN-gamma; [1],646.3
same,MFI (Bead name: IFN-gamma),"IFN-gamma; PBMC + LPS(5 ug/ml) + test article 0.001 uM, single replicates",619.0 and 724.0 and 596.0
same,MFI (Bead name: IFN-gamma),IFN-gamma; [2],850.3
same,MFI (Bead name: IFN-gamma),"IFN-gamma; PBMC + LPS(5 ug/ml) + test article 0.01 uM, single replicates",940.0 and 906.0 and 705.0
same,MFI (Bead name: IFN-gamma),IFN-gamma; [3],475.5
same,MFI (Bead name: IFN-gamma),"IFN-gamma; PBMC + LPS(5 ug/ml) + test article 0.1 uM, single replicates",527.0 and 408.0 and 491.5
same,MFI (Bead name: IFN-gamma),IFN-gamma; [4],611.5
same,MFI (Bead name: IFN-gamma),"IFN-gamma; PBMC + LPS(5 ug/ml) + test article 1 uM, single replicates",658.0 and 645.5 and 531.0
same,MFI (Bead name: IFN-gamma),IFN-gamma; [5],709.3
same,MFI (Bead name: IFN-gamma),"IFN-gamma; PBMC + LPS(5 ug/ml) + test article 10 uM, single replicates",827.5 and 691.0 and 609.5
same,MFI (Bead name: IFN-gamma),IFN-gamma; [6],503.0
same,MFI (Bead name: IFN-gamma),"IFN-gamma; PBMC + LPS(5 ug/ml) + test article 100 uM, single replicates",504.0 and 555.0 and 450.0
same,MFI (Bead name: IFN-gamma),IFN-gamma; [7],6.5
same,MFI (Bead name: IFN-gamma),"IFN-gamma; PBMC + test article 0.01 uM, no LPS, single replicates",5.0 and 8.0
same,MFI (Bead name: IFN-gamma),IFN-gamma; [8],6.5
same,MFI (Bead name: IFN-gamma),"IFN-gamma; PBMC + test article 0.1 uM, no LPS, single replicates",5.0 and 8.0

# Where “and” joins values, the source holds several entries; their conditions need not be identical. Identical values can stand only once. Where a SMILES comes first, the peptide text is derived from it. [ ]: non-standard residue; d: D form. Hyp = O=C(O)[C@@H]1C[C@@H](O)CN1
